Assay results as given in patent US7893025B2, “Use of growth hormone releasing factor analogs in treating patients suffering from wasting” (Theratechnolgies Inc., priority 2003, dated 2011).
Not every detail of the peptide structures is certain; ends, links or a residue may be inferred.

Experiments:
Format in all cases: in vivo, human
IGF-1 = experiment: Serum IGF-1 levels over the study period (Esoterix RIA kit) in COPD patients; conditions: for Change in serum IGF-1 over baseline: Month 3, overall population; for Change in serum IGF-1: Month 3, dose not stated
[1] = Body composition (lean body mass and fat mass) by DEXA in COPD patients
[2] = Peripheral (quadriceps) muscle strength, isokinetic testing, knee extension at 90°/sec
[3] = Borg scale for dyspnea and leg discomfort at isotime, cycle ergometer at 75% of maximal capacity; conditions: 2 mg, cycle ergometer test, P<0.01

With `CC/C=C/CC(=O)N[C@@H](Cc1ccc(O)cc1)C(=O)N[C@@H](C)C(=O)N[C@@H](CC(=O)O)C(=O)N[C@@H](C)C(=O)N[C@H](C(=O)N[C@@H](Cc1ccccc1)C(=O)N[C@H](C(=O)N[C@@H](CC(N)=O)C(=O)N[C@@H](CO)C(=O)N[C@@H](Cc1ccc(O)cc1)C(=O)N[C@@H](CCCNC(=N)N)C(=O)N[C@@H](CCCCN)C(=O)N[C@H](C(=O)N[C@@H](CC(C)C)C(=O)NCC(=O)N[C@@H](CCC(N)=O)C(=O)N[C@@H](CC(C)C)C(=O)N[C@@H](CO)C(=O)N[C@@H](C)C(=O)N[C@@H](CCCNC(=N)N)C(=O)N[C@@H](CCCCN)C(=O)N[C@@H](CC(C)C)C(=O)N[C@@H](CC(C)C)C(=O)N[C@@H](CCC(N)=O)C(=O)N[C@@H](CC(=O)O)C(=O)N[C@H](C(=O)N[C@@H](CCSC)C(=O)N[C@@H](CO)C(=O)N[C@@H](CCCNC(=N)N)C(=O)N[C@@H](CCC(N)=O)C(=O)N[C@@H](CCC(N)=O)C(=O)NCC(=O)N[C@@H](CCC(=O)O)C(=O)N[C@@H](CO)C(=O)N[C@@H](CC(N)=O)C(=O)N[C@@H](CCC(N)=O)C(=O)N[C@@H](CCC(=O)O)C(=O)N[C@@H](CCCNC(=N)N)C(=O)NCC(=O)N[C@@H](C)C(=O)N[C@@H](CCCNC(=N)N)C(=O)N[C@@H](C)C(=O)N[C@@H](CCCNC(=N)N)C(=O)N[C@@H](CC(C)C)C(N)=O)[C@@H](C)CC)C(C)C)[C@@H](C)O)[C@@H](C)CC` [TH9507, (hexenoyl trans-3)hGRF(1-44)NH2] the “Change in serum IGF-1 over baseline” value (IGF-1; 1 mg s.c. daily) was “+50%”, the “Change in serum IGF-1 over baseline” value (IGF-1; 2 mg s.c. daily) was “+92%” and the “Change in serum IGF-1” value (IGF-1; low BMI population) was “+129%”. The “Change in serum IGF-1” value (IGF-1; low FFMI population) was “+103%”, the “Change in fat mass” value ([1]; 1 mg, Month 3, low BMI population) was -1.0 kg and the “Change in fat mass” value ([1]; 1 mg, Month 3, low FFMI population) was -1.1 kg. For the same compound, the “Change in lean body mass” value ([1]; 1 mg, Month 3, overall population) was “+1.3 kg”, the “Change in lean body mass” value ([1]; 1 mg, end of treatment period, low BMI population) was “+1 kg” and the “Change in lean body mass” value ([1]; 1 mg, end of treatment period, low FFMI population) was “+1.2 kg”. The “Change in fat mass” value ([1]; 1 mg, end of treatment period, overall population) was -0.7 kg, the “Change in fat mass” value ([1]; 2 mg, Month 3, low BMI population) was -1.1 kg and the “Change in fat mass” value ([1]; 2 mg, Month 3, low FFMI population) was -0.9 kg. For the same compound, the “Change in lean body mass” value ([1]; 2 mg, Month 3, overall population) was “+0.9 kg”, the “Change in lean body mass” value ([1]; 2 mg, end of treatment period, low BMI population) was “+1.3 kg” and the “Change in lean body mass” value ([1]; 2 mg, end of treatment period, low FFMI population) was “+1.7 kg”. The “Change in fat mass” value ([1]; 2 mg, end of treatment period, overall population) was -0.5 kg, the “Percentage of subjects with increase in muscle strength ≧10% vs. baseline” value ([2]; 1 mg, Low BMI, Month 1) was 57.1% and the “Percentage of subjects with increase in muscle strength ≧10% vs. baseline” value ([2]; 1 mg, Low BMI, Month 2) was 57.1%. The “Percentage of subjects with increase in muscle strength ≧10% vs. baseline” value ([2]; 1 mg, Low BMI, Month 3) was 57.1%, the “Percentage of subjects with increase in muscle strength ≧10% vs. baseline” value ([2]; 1 mg, Low FFMI, Month 1) was 40.0% and the “Percentage of subjects with increase in muscle strength ≧10% vs. baseline” value ([2]; 1 mg, Low FFMI, Month 2) was 70.0%. The “Percentage of subjects with increase in muscle strength ≧10% vs. baseline” value ([2]; 1 mg, Low FFMI, Month 3) was 70.0%, the “Percentage of subjects with increase in muscle strength ≧10% vs. baseline” value ([2]; 1 mg, Total Population, Month 1) was 38.7% and the “Percentage of subjects with increase in muscle strength ≧10% vs. baseline” value ([2]; 1 mg, Total Population, Month 2) was 38.7%. The “Percentage of subjects with increase in muscle strength ≧10% vs. baseline” value ([2]; 1 mg, Total Population, Month 3) was 45.2%, the “Change over baseline in muscle strength (knee extension at 90°/sec)” value (shortened to “Change over baseline in muscle strength”) ([2]; 1 mg, low BMI population, P<0.01) was “significantly increased over baseline” and the “Change over baseline in muscle strength” value ([2]; 1 mg, overall population, P=0.06) was “a trend was observed”. The “Percentage of subjects with increase in muscle strength ≧10% vs. baseline” value ([2]; 2 mg, Low BMI, Month 1) was 44.4%, the “Percentage of subjects with increase in muscle strength ≧10% vs. baseline” value ([2]; 2 mg, Low BMI, Month 2) was 55.6% and the “Percentage of subjects with increase in muscle strength ≧10% vs. baseline” value ([2]; 2 mg, Low BMI, Month 3) was 55.6%. The “Percentage of subjects with increase in muscle strength ≧10% vs. baseline” value ([2]; 2 mg, Low FFMI, Month 1) was 44.4%, the “Percentage of subjects with increase in muscle strength ≧10% vs. baseline” value ([2]; 2 mg, Low FFMI, Month 2) was 55.6% and the “Percentage of subjects with increase in muscle strength ≧10% vs. baseline” value ([2]; 2 mg, Low FFMI, Month 3) was 44.4%. The “Percentage of subjects with increase in muscle strength ≧10% vs. baseline” value ([2]; 2 mg, Total Population, Month 1) was 46.9%, the “Percentage of subjects with increase in muscle strength ≧10% vs. baseline” value ([2]; 2 mg, Total Population, Month 2) was 37.5% and the “Percentage of subjects with increase in muscle strength ≧10% vs. baseline” value ([2]; 2 mg, Total Population, Month 3) was 40.6%. The “Change over baseline in muscle strength” value ([2]; 2 mg, low BMI population, P=0.08) was “a trend was observed”, the “Change over baseline in muscle strength” value ([2]; 2 mg, overall population, P<0.05) was “significantly increased over baseline” and the “Change over baseline in muscle strength” value ([2]; both TH9507-treated groups (1 mg and 2 mg), low FFMI population, P<0.05) was “significant results over baseline”. The “Change in Borg scale for breathing discomfort” value [3] was “significantly decreased over baseline” and the “Change in Borg scale for leg discomfort (leg fatigue)” value [3] was “significantly decreased over baseline”.
